{"sequences": {"note": "Chains of the proteins cited; added tags and fusions are not shown.", "UniProt P10922": "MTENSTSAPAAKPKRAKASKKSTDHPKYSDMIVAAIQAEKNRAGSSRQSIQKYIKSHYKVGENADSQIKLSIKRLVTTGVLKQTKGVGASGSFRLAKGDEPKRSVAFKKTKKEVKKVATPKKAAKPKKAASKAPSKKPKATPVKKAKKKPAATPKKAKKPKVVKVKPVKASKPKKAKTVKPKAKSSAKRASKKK", "UniProt O09106": "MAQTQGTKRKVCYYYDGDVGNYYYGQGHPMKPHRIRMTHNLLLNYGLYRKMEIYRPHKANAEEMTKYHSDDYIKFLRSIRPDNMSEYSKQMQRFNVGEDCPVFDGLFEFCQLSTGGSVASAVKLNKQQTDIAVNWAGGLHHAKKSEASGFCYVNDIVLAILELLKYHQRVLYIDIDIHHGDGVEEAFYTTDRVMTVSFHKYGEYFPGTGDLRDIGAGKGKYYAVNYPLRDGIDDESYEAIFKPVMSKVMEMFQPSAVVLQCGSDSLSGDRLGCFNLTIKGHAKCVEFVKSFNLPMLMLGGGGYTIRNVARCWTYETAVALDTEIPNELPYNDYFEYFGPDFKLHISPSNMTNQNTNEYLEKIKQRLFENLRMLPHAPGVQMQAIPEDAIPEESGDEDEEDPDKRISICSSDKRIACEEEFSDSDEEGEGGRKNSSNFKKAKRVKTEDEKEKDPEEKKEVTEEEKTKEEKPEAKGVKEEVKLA"}, "source": "paper PMC11101354", "molecular_target": "histone H1.0 (mouse, FLAG-tagged, expressed from Adv-GFP-H1.0-FLAG) (mouse) (UniProt P10922)", "experiment": "co-IP; anti-FLAG immunoprecipitation (FLAG Immunoprecipitation Kit, Sigma-Aldrich) from lysates of primary murine cardiac fibroblasts transfected with Adv-GFP-H1.0-FLAG or Adv-GFP for 48 h; eluted with SDS sample buffer, immunoblotting", "note": "These are yes or no findings as the source states them, for the method shown. Binding seen in cells or lysates may run through a third protein. Some entries that bind do so weakly or less than the wild type.", "data": [{"substance": "HDAC1 (from UniProt O09106 1-482) (enzyme)", "values": [{"measurement": "binding", "result": "binds"}]}]}
